Data source: PubChem BioAssay AID1508597 (Cure First, 2020)
Shown is an unselected part of the about 2,100 reagents, under one of the conditions tested. 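Calls flag viability under 80% in either arm, not effects specific to rucaparib; the reference for percent is not stated.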 A number with no mark means an inactive call. The record does not give: the 100% reference.

Test: 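Knock-downs altering ovarian cancer cell survival with or without PARP inhibitor rucaparib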 (primary screen)
Cells: human ovarian carcinoma lines grown from tumours: OCI-P5x (papillary serous) and OCI-C5x (clear cell)
Reagents: siRNA pool against human genes, 1.25 pmol siRNA per well
Duration: 72 h or 96 h, depending on the cell culture
Conditions: rucaparib 20 µM (about IC30) or vehicle, present until read-out
Rucaparib or vehicle: Rucaparib
Cell line: OCI-C5x (clear cell)
Detection: 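ATP luminescence measured at 72 or 96 h according to the culture, then normalised and expressed as percent viability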
Reading the numbers: viability, normalised: higher = more viable cells remaining
Call rule: 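Active when normalised viability falls below 80 percent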
Calls: active = viability under 80%; inactive = viability 80% or more

target,technical replicate,"viability, normalised (%)"
FOXC2,1,34.2 (active)
FOXC2,2,42 (active)
FOXC2,3,37.5 (active)
JMJD6,1,34.5 (active)
JMJD6,2,36.3 (active)
JMJD6,3,43 (active)
HIPK4,1,40.1 (active)
HIPK4,2,47.4 (active)
HIPK4,3,55.6 (active)
MAPK7,1,65.7 (active)
MAPK7,2,61.5 (active)
MAPK7,3,72 (active)

Sorted by “viability, normalised (%)” (ascending): 3 of the entries above.
target,technical replicate,"viability, normalised (%)"
JMJD6,1,34.5 (active)
JMJD6,2,36.3 (active)
JMJD6,3,43 (active)

More reagents:
target,technical replicate,"viability, normalised (%)"
YTHDC2,1,58.4 (active)
YTHDC2,2,69.6 (active)
YTHDC2,3,37.9 (active)
PDE6D,1,62.9 (active)
PDE6D,2,45.1 (active)
PDE6D,3,42.9 (active)
AGO2,1,52.6 (active)
AGO2,2,68.5 (active)
AGO2,3,51 (active)
UBE2A,1,61.5 (active)
UBE2A,2,56.2 (active)
UBE2A,3,54.6 (active)
